No constants are given. Whether binding was seen depends on the method and setting. Some results given as binding are weak or reduced against the parent protein; the word gives no strength.
Columns and labels:
[1] = biological target: T1, desmoglein 3 in human blood (serum or plasma) samples (human) (UniProt P32926); assay: sandwich ELISA on human blood samples; immobilized DF366m, detection biotinylated DF-151
T1 sequence: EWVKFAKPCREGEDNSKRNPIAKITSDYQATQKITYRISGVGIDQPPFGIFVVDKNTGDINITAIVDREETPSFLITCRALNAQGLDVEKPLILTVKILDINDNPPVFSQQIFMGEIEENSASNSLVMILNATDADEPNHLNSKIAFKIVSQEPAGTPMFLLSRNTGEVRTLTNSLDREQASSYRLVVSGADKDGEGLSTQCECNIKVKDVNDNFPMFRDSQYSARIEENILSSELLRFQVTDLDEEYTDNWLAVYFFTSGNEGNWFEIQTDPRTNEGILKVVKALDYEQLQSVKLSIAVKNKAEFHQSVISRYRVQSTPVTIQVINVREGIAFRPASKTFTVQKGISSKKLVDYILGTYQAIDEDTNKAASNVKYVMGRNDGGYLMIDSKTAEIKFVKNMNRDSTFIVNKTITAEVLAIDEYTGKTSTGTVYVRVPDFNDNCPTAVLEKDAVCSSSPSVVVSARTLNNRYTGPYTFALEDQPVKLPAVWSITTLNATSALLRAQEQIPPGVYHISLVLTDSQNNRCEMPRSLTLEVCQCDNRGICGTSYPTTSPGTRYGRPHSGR

[2] = biological target: T1, desmoglein 3 in human blood (serum or plasma) samples (human); assay: sandwich ELISA on human serum samples; immobilized DF366m, detection biotinylated MAB1720

B1: DF366m (DF366m[I] antibody) (antibody, mouse IgG2a, kappa, V domains shown)
VH: EVQLQQSGPELVKPGASVKISCKASGYTFTDYNMDWVKQSHGESLEWIGYIYPNNGGSGYNQKFKSKATLTVDKSSSTAYMELHSLTSEDSAVYYCARRDSYYGFDMAWFAYWGQGTLVTVSA
VL: DIQMTQSPASLSASVGETVTITCRPSENIYNNLAWYQQKQGKSPQLLVYVATNLAEGVPSRFSGSGSGTRFSLKINSLQPEDFGKYYCQHSYGTPWTFGGGTKLEIKR
notes: Complete antibody; Plain when immobilized; biotinylated (Biotin-AC5-Osu) when used as detection antibody; also called DF366m antibody
With B1 the binding [1] was “binds” and the binding [2] was “binds”.

B2: DF151 (DF151[I] antibody) (antibody, mouse IgG2b, kappa, V domains shown)
VH: EVQLQQSGPELVKPGASVKISCKASGYSFTAYYMHWVKQSPEKCLEWIGQINPSTGGTTYNQKFKAKATLTVDKSSSTAYMQLKSLTSEDSAVYYCARWGDSWGQGTTLTVSS
VL: DIVLTQSPASLAVSLGQSVTISCRASESVEYYGTSLMQWYQQKPGQPPKLLIYGASDVESGVPARFSGSGSGTDFSLNIHPVEEDDIAMYFCQQSRKVPYTFGSGTKLEIKR
notes: Complete antibody; Biotinylated as detection antibody in ELISA; labeled with Alexa Fluor 647 as detection antibody in SPFS; also called DF151 antibody
In the case of B2, the binding [1] is reported as “binds”.

— patent publication US20150276749A1 (KONICA MINOLTA, published 2015)
